Article PMC10014099
These are yes or no findings as the source states them, for the method shown. Binding seen in cells or lysates may run through a third protein. A yes stands for co-enrichment or nearness to the bait. Other partners may have been found.

Sequences of proteins named here, by UniProt entry; tags and fusion partners are left off.
UniProt P0DMV8: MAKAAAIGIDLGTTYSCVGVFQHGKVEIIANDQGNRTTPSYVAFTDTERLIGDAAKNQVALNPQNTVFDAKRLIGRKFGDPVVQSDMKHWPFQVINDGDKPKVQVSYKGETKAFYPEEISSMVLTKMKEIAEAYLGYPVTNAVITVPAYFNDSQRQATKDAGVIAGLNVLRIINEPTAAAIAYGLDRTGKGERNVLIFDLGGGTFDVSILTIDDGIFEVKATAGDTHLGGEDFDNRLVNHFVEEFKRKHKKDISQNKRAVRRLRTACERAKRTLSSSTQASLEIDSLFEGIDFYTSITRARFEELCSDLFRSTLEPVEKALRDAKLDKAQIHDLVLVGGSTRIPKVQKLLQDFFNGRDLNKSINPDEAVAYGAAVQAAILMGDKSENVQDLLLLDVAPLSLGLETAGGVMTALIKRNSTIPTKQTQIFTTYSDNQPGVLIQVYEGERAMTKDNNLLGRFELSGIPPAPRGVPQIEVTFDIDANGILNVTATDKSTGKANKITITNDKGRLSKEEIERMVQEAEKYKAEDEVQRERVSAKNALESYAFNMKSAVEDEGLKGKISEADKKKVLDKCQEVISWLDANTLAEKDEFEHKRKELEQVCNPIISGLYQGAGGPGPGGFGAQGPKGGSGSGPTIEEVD

Assays:
BirA-Plek2 [1] = target: T1, BirA-Plek2 (UniProt Q9WV52); experiment: proximity labelling; 293T cells expressing BirA-Plek2, biotin, streptavidin magnetic beads; band around 70 kDa cut out and analysed by mass spectrometry
T1 sequence: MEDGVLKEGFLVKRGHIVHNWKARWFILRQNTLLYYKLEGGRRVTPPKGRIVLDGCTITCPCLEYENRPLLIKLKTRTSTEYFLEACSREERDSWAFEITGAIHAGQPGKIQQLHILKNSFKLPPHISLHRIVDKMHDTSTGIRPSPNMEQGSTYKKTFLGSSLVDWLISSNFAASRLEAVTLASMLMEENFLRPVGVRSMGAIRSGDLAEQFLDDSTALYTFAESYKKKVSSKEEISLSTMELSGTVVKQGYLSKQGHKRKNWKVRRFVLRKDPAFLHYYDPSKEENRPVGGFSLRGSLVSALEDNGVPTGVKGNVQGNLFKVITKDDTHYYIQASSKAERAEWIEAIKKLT

BirA-Plek2 [2] = target: T1, BirA-Plek2; experiment: proximity labelling; 293T cells transfected with BirA-Plek2 and incubated with biotin (50 uM), bead-conjugated streptavidin pull-down, Western blot after SDS-PAGE

- binding (BirA-Plek2 [1]): binds
- binding (BirA-Plek2 [2]): binds
Substance: Hsp72 (from UniProt P0DMV8 1-641)
